Paper PMC5855981

What was measured:
Test in all cases: fluorescence plate assay
Conditions in all cases: 20 mM HEPES pH 7.5, 150 mM NaCl, 6 mM KCl, 2 mM MgCl2, plate assay: 10 nM aptamer (300 nM in FBS assays), 1 h, room temperature, commercial protein, label: 5'-Alexa 488
[1] = biological target: bovine serum albumin (BSA) (bovine) (UniProt P02769)
chymotrypsin (CHY) = system: chymotrypsin (CHY)
lysozyme (LYS) = lysozyme (LYS) (UniProt P00698)
[2] = biological target: porcine pancreas elastase (PPE) (porcine) (UniProt P00772)
thrombin (THR) = system: thrombin (THR)
[3] = 150 mM NaCl, did not bind strongly, fully 2'-OMe, synthetic backbone, letters put together from the description
[4] = 500 mM NaCl, 66 ug/mL yeast tRNA, fully 2'-OMe, synthetic backbone, letters put together from the description
[5] = 150 mM NaCl, did not bind strongly, single-stranded DNA

“ATACGACTCACTATTAGGGCCCTGTTCGCTATCCCCCATCCCCCGATTGCTGCTAGACTACTGACTAC [2mHNE-5]”: binds more weakly [1, 3]; no binding [1, 4]; binds more weakly (chymotrypsin (CHY); [3]). “ATACGACTCACTATTAGGGCCCTGTTCGCTATCCCCCATCCCCCGATTGCTGCTAGACTACTGACTAC [2mHNE-5]”: no binding (chymotrypsin (CHY); [4]); binds more weakly (lysozyme (LYS); 150 mM NaCl, some affinity, fully 2'-OMe, synthetic backbone, letters put together from the description); no binding (lysozyme (LYS); [4]). “ATACGACTCACTATTAGGGCCCTGTTCGCTATCCCCCATCCCCCGATTGCTGCTAGACTACTGACTAC [2mHNE-5]”: binds more weakly [2, 3]; no binding [2, 4]; binds more weakly (thrombin (THR); [3]). “ATACGACTCACTATTAGGGCCCTGTTCGCTATCCCCCATCCCCCGATTGCTGCTAGACTACTGACTAC [2mHNE-5]”: no binding (thrombin (THR); [4]).

“TAGCGATACTGCGTGGGTTGGGGCGGGTAGGGCCAGCAGTCTCGT [DNA-I]”: binds more weakly [1, 5]; binds more weakly (chymotrypsin (CHY); [5]); binds more weakly (lysozyme (LYS); 150 mM NaCl, some affinity, single-stranded DNA). “TAGCGATACTGCGTGGGTTGGGGCGGGTAGGGCCAGCAGTCTCGT [DNA-I]”: binds more weakly [2, 5]; binds more weakly (thrombin (THR); [5]).

Negatives hold for the conditions tested. At least one verdict rests on a figure or table, not on a statement of the authors. The exact form of at least one protein or probe is not confirmed. The comparison behind a weaker result is the experiment's own reference, which may not be listed here.
